Assay results: the supplement of paper PMC8728848
The other results are listed elsewhere or left out.

Tests used:
Assay in all cases: glycan array binding signal (z-score within array); higher = stronger binding
Conditions in all cases: glycan notation: IUPAC condensed, linker removed
[1] = biological target: Fuc(a1-3)[Gal(b1-4)]Glc6S
Procedure, shortened: (§1)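 Glycan array binding is given as a within-array Z-score, which can be read as non-binding when negative. The arrays, 3228 of them, came from the Consortium for Functional Glycomics database and were retained only where the protein sequence was available. Z-scores were averaged across arrays of the same protein sequence at different concentrations or buffers and across linkers.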

[2] = biological target: Fuc(a1-3)[Gal(b1-4)]GlcNAc
Procedure, shortened: as §1

[3] = biological target: Fuc(a1-3)[Gal(b1-4)]GlcNAc(b1-2)Man
Procedure, shortened: as §1

[4] = biological target: Fuc(a1-3)[Gal(b1-4)]GlcNAc(b1-2)Man(a1-3)[Fuc(a1-3)[Gal(b1-4)]GlcNAc(b1-2)Man(a1-6)]Man(b1-4)GlcNAc(b1-4)GlcNAc
Procedure, shortened: as §1

[5] = biological target: Fuc(a1-3)[Gal(b1-4)]GlcNAc(b1-2)Man(a1-3)[Fuc(a1-3)[Gal(b1-4)]GlcNAc(b1-2)Man(a1-6)]Man(b1-4)GlcNAc(b1-4)[Fuc(a1-6)]GlcNAc
Procedure, shortened: as §1

[6] = biological target: Fuc(a1-3)[Gal(b1-4)]GlcNAc(b1-3)Gal(b1-3)[Fuc(a1-4)]GlcNAc
Procedure, shortened: as §1

[7] = biological target: Fuc(a1-3)[Gal(b1-4)]GlcNAc(b1-3)GalNAc
Procedure, shortened: as §1

[8] = biological target: Fuc(a1-3)[Gal(b1-4)]GlcNAc(b1-4)Gal(b1-4)[Fuc(a1-3)]GlcNAc
Procedure, shortened: as §1

[9] = biological target: Fuc(a1-3)[Gal(b1-4)]GlcNAc(b1-4)Gal(b1-4)[Fuc(a1-3)]GlcNAc(b1-4)Gal(b1-4)[Fuc(a1-3)]GlcNAc
Procedure, shortened: as §1

[10] = biological target: Fuc(a1-3)[Gal(b1-4)]GlcNAc(b1-6)GalNAc
Procedure, shortened: as §1

[11] = biological target: Fuc(a1-3)[Gal(b1-4)]GlcNAc(b1-6)[Gal(b1-3)GlcNAc(b1-3)]Gal(b1-4)Glc
Procedure, shortened: as §1

[12] = biological target: Fuc(a1-3)[Gal(b1-4)]GlcNAc6S
Procedure, shortened: as §1

[13] = biological target: Fuc(a1-3)[Gal3S(b1-4)]Glc
Procedure, shortened: as §1

[14] = biological target: Fuc(a1-3)[Gal3S(b1-4)]GlcNAc
Procedure, shortened: as §1

[15] = biological target: Fuc(a1-3)[Gal3S(b1-4)]GlcNAc6S
Procedure, shortened: as §1

[16] = biological target: Fuc(a1-3)[GalNAc(b1-4)]GlcNAc
Procedure, shortened: as §1

[17] = biological target: Fuc(a1-3)[GalNAc(b1-4)]GlcNAc6S
Procedure, shortened: as §1

[18] = biological target: Fuc(a1-4)GlcNAc
Procedure, shortened: as §1

[19] = biological target: Fuc(b1-3)GlcNAc
Procedure, shortened: as §1

[20] = biological target: Gal(a1-2)Gal
Procedure, shortened: as §1

[21] = biological target: Gal(a1-3)Gal
Procedure, shortened: as §1

[22] = biological target: Gal(a1-3)Gal(b1-3)GlcNAc
Procedure, shortened: as §1

[23] = biological target: Gal(a1-3)Gal(b1-3)GlcNAc(b1-2)Man
Procedure, shortened: as §1

[24] = biological target: Gal(a1-3)Gal(b1-3)GlcNAc(b1-2)Man(a1-3)[Gal(a1-3)Gal(b1-3)GlcNAc(b1-2)Man(a1-6)]Man(b1-4)GlcNAc(b1-4)GlcNAc
Procedure, shortened: as §1

[25] = biological target: Gal(a1-3)Gal(b1-3)GlcNAc(b1-3)GalNAc
Procedure, shortened: as §1

[26] = biological target: Gal(a1-3)Gal(b1-3)GlcNAc(b1-6)GalNAc
Procedure, shortened: as §1

[27] = biological target: Gal(a1-3)Gal(b1-3)[Fuc(a1-4)]GlcNAc(b1-2)Man(a1-3)[Gal(a1-3)Gal(b1-3)[Fuc(a1-4)]GlcNAc(b1-2)Man(a1-6)]Man(b1-4)GlcNAc(b1-4)GlcNAc
Procedure, shortened: as §1

[28] = biological target: Gal(a1-3)Gal(b1-4)Glc
Procedure, shortened: as §1

[29] = biological target: Gal(a1-3)Gal(b1-4)GlcNAc
Procedure, shortened: as §1

[30] = biological target: Gal(a1-3)Gal(b1-4)GlcNAc(b1-2)Man
Procedure, shortened: as §1

[31] = biological target: Gal(a1-3)Gal(b1-4)GlcNAc(b1-2)Man(a1-3)[Gal(a1-3)Gal(b1-4)GlcNAc(b1-2)Man(a1-6)]Man(b1-4)GlcNAc(b1-4)GlcNAc
Procedure, shortened: as §1

[32] = biological target: Gal(a1-3)Gal(b1-4)GlcNAc(b1-3)GalNAc
Procedure, shortened: as §1

[33] = biological target: Gal(a1-3)Gal(b1-4)GlcNAc(b1-6)GalNAc
Procedure, shortened: as §1

[34] = biological target: Gal(a1-3)Gal(b1-4)[Fuc(a1-3)]GlcNAc
Procedure, shortened: as §1

[35] = biological target: Gal(a1-3)Gal(b1-4)[Fuc(a1-3)]GlcNAc(b1-2)Man(a1-3)[Gal(a1-3)Gal(b1-4)[Fuc(a1-3)]GlcNAc(b1-2)Man(a1-6)]Man(b1-4)GlcNAc(b1-4)GlcNAc
Procedure, shortened: as §1

[36] = biological target: Gal(a1-3)GalNAc
Procedure, shortened: as §1

[37] = biological target: Gal(a1-3)[Gal(a1-4)]Gal(b1-4)GlcNAc
Procedure, shortened: as §1

[38] = biological target: Gal(a1-4)Gal(b1-3)GlcNAc(b1-2)Man(a1-3)[Gal(a1-4)Gal(b1-3)GlcNAc(b1-2)Man(a1-6)]Man(b1-4)GlcNAc(b1-4)GlcNAc
Procedure, shortened: as §1

[39] = biological target: Gal(a1-4)Gal(b1-4)Glc
Procedure, shortened: as §1

[40] = biological target: Gal(a1-4)Gal(b1-4)GlcNAc
Procedure, shortened: as §1

[41] = biological target: Gal(a1-4)Gal(b1-4)GlcNAc(b1-2)Man(a1-3)[Gal(a1-4)Gal(b1-4)GlcNAc(b1-2)Man(a1-6)]Man(b1-4)GlcNAc(b1-4)GlcNAc
Procedure, shortened: as §1

[42] = biological target: Gal(a1-4)Gal(b1-4)GlcNAc(b1-3)Gal(b1-4)Glc
Procedure, shortened: as §1

[43] = biological target: Gal(a1-4)GlcNAc
Procedure, shortened: as §1

[44] = biological target: Gal(a1-6)Glc
Procedure, shortened: as §1

[45] = biological target: Gal(b1-2)Gal
Procedure, shortened: as §1

[46] = biological target: Gal(b1-3)Gal
Procedure, shortened: as §1

[47] = biological target: Gal(b1-3)Gal(b1-4)GlcNAc
Procedure, shortened: as §1

[48] = biological target: Gal(b1-3)GalNAc
Procedure, shortened: as §1

[49] = biological target: Gal(b1-3)GalNAc(a1-3)[Fuc(a1-2)]Gal(b1-4)Glc
Procedure, shortened: as §1

[50] = biological target: Gal(b1-3)GalNAc(a1-3)[Fuc(a1-2)]Gal(b1-4)GlcNAc
Procedure, shortened: as §1

[51] = biological target: Gal(b1-3)GalNAc(b1-3)Gal
Procedure, shortened: as §1

[52] = biological target: Gal(b1-3)GalNAc(b1-3)Gal(a1-4)Gal(b1-4)Glc
Procedure, shortened: as §1

[53] = biological target: Gal(b1-3)GalNAc(b1-4)Gal(b1-4)Glc
Procedure, shortened: as §1

[54] = biological target: Gal(b1-3)GalNAc(b1-4)[Neu5Ac(a2-3)]Gal(b1-4)Glc
Procedure, shortened: as §1

[55] = biological target: Gal(b1-3)GlcNAc
Procedure, shortened: as §1

[56] = biological target: Gal(b1-3)GlcNAc(a1-3)Gal(b1-4)GlcNAc
Procedure, shortened: as §1

[57] = biological target: Gal(b1-3)GlcNAc(a1-6)Gal(b1-4)GlcNAc
Procedure, shortened: as §1

[58] = biological target: Gal(b1-3)GlcNAc(b1-2)Man
Procedure, shortened: as §1

[59] = biological target: Gal(b1-3)GlcNAc(b1-2)Man(a1-3)[Gal(b1-3)GlcNAc(b1-2)Man(a1-6)]Man(b1-4)GlcNAc(b1-4)GlcNAc
Procedure, shortened: as §1

[60] = biological target: Gal(b1-3)GlcNAc(b1-2)Man(a1-3)[Gal(b1-3)GlcNAc(b1-2)Man(a1-6)]Man(b1-4)GlcNAc(b1-4)[Fuc(a1-6)]GlcNAc
Procedure, shortened: as §1

B1: Blon2355mut (Bifidobacterium longum) (protein)
chain: MVQEPTLEWHVIPEPTNVEPLVGTCSLPLSGTVVEQRGADDAEAVFARQLVDDIKRVCGGRWQVASGEVQREVTLRTSPSLDDWSYVLEVSPDGVVITGSGFEGVRDGVQTLRQIIRQIGLTIPCMVIRDRPAFSTRGYYLDVTRGRVPSMAWLKSWVDRLCFYKYNQFQLYIEHTFQFNGLSEVWRGADPLTSSDILELDSYCAARGIELVPSVSTFGHHYTALRTRQLRDLGEFPEDADRPFSLIERMTHHTLNITDERSYEFSTSLIDELMPLFRSRKFNICANETFDLGKGRSKQESAKRGVGAMYADFVERLCRHVDDRGHDVMVWADVALEHPEIIDTLPKNITWLNWQYEPNVDDGTTAALADAGATQMVCPAVWCWNALIPRIDDAWNNITRMARHGRAHDVSGMLVTDWGDFGHVNDPRMSVPGMIFGAQQSWNPDAELSEVDMLSRISTIEYGDHTGSVVGALRGASAKGGFSWSDLVTYLELDDGRGGCNTEIVRVMGCLEAYRNDLPQSGQARLADARVSMLRTLRDSILAGRELNGKLDDAAKDITQLLRVAGDPSSAAVWSLAIDGQRLLNRVGLALLAAHGVVRQDEAGIDAAKLADELECWTEQYSRLWHEVSRQSELARIQHVVWRAADVLRSI
- glycan array binding signal (z-score) [1]: 1.49
- glycan array binding signal (z-score) [2]: 0.254
- glycan array binding signal (z-score) [3]: -0.693
- glycan array binding signal (z-score) [4]: -0.38
- glycan array binding signal (z-score) [5]: -0.128
- glycan array binding signal (z-score) [6]: -0.794
- glycan array binding signal (z-score) [7]: -0.3
- glycan array binding signal (z-score) [8]: 0.072
- glycan array binding signal (z-score) [9]: -0.166
- glycan array binding signal (z-score) [10]: -0.427
- glycan array binding signal (z-score) [11]: -0.166
- glycan array binding signal (z-score) [12]: 0.994
- glycan array binding signal (z-score) [13]: -0.089
- glycan array binding signal (z-score) [14]: 1.44
- glycan array binding signal (z-score) [15]: 0.088
- glycan array binding signal (z-score) [16]: 3.72
- glycan array binding signal (z-score) [17]: 0.203
- glycan array binding signal (z-score) [18]: -0.82
- glycan array binding signal (z-score) [19]: -1.07
- glycan array binding signal (z-score) [20]: -0.108
- glycan array binding signal (z-score) [21]: -0.729
- glycan array binding signal (z-score) [22]: -1.19
- glycan array binding signal (z-score) [23]: 2.29
- glycan array binding signal (z-score) [24]: 0.57
- glycan array binding signal (z-score) [25]: -0.884
- glycan array binding signal (z-score) [26]: -1
- glycan array binding signal (z-score) [27]: -0.814
- glycan array binding signal (z-score) [28]: -0.136
- glycan array binding signal (z-score) [29]: -0.086
- glycan array binding signal (z-score) [30]: 0.209
- glycan array binding signal (z-score) [31]: -0.325
- glycan array binding signal (z-score) [32]: -0.289
- glycan array binding signal (z-score) [33]: -0.298
- glycan array binding signal (z-score) [34]: -0.344
- glycan array binding signal (z-score) [35]: 1.73
- glycan array binding signal (z-score) [36]: 0.527
- glycan array binding signal (z-score) [37]: 3.31
- glycan array binding signal (z-score) [38]: -0.431
- glycan array binding signal (z-score) [39]: 2.13
- glycan array binding signal (z-score) [40]: 1.36
- glycan array binding signal (z-score) [41]: -1.08
- glycan array binding signal (z-score) [42]: -0.527
- glycan array binding signal (z-score) [43]: -0.832
- glycan array binding signal (z-score) [44]: -0.671
- glycan array binding signal (z-score) [45]: 0.594
- glycan array binding signal (z-score) [46]: -0.445
- glycan array binding signal (z-score) [47]: 1.46
- glycan array binding signal (z-score) [48]: 0.03
- glycan array binding signal (z-score) [49]: -1.53
- glycan array binding signal (z-score) [50]: -1.37
- glycan array binding signal (z-score) [51]: 0.657
- glycan array binding signal (z-score) [52]: 0.808
- glycan array binding signal (z-score) [53]: 0.247
- glycan array binding signal (z-score) [54]: 1.42
- glycan array binding signal (z-score) [55]: -0.022
- glycan array binding signal (z-score) [56]: -1.09
- glycan array binding signal (z-score) [57]: -0.504
- glycan array binding signal (z-score) [58]: 0.043
- glycan array binding signal (z-score) [59]: 0.075
- glycan array binding signal (z-score) [60]: -0.089
